Reference: patent US20090305888A1, “Materials and Methods for Providing Oxygen to Improve Seed Germination and Plant Growth” (priority 2006, published 2009)

Experiments:
[1] = test system: corn plant at three-leaf stage; test: Depletion of oxygen by one corn plant in 50 ml solution; conditions: 50 ml 200% strength nutrient solution
[2] = test system: corn plants; test: Oxygen level of different oxygen sources in pot experiments (1800 ml); conditions: for oxygen level in culture pots: 1800 ml 200% nutrient solution, 2 ml 3% hydrogen peroxide or 2 grams of solid, FIGS. 19a and 19b

## [Ca+2].[O-][O-] [calcium peroxide]
[1]; FIGS. 14 and 15
  maintenance of oxygen release: could maintain oxygen release for much longer periods of time
  oxygen level compared with magnesium peroxide: much higher level of oxygen release than magnesium peroxide
[1]; FIGS. 14 and 15, listed as Calcium peroxide
  oxygen level compared with magnesium peroxide: much higher level of oxygen than magnesium peroxide
[2]; 2 grams of calcium peroxide per 1800 ml pot, FIG. 19b
  day of single peak of oxygen level: 2 days
[2]
  oxygen level in culture pots: double the oxygen level of aerating treatment

## OO [hydrogen peroxide]
[2]
  oxygen level in culture pots: very fluctuant

## [Mg+2].[O-][O-] [magnesium peroxide]
[1]; FIGS. 14 and 15
  maintenance of oxygen release: could maintain oxygen release for much longer periods of time
[2]
  oxygen level in culture pots: consistent and much higher than the hypoxic treatment and even higher than the treatment with hydrogen peroxide

## O=C([O-])[O-].O=C([O-])[O-].OO.OO.OO.[Na+].[Na+].[Na+].[Na+] [sodium percarbonate]
[2]
  oxygen level in culture pots: much higher
